The values below come from US20180128837A1.

In assay [1] the target is T1, ST2/T1 receptor on a mouse mast cell line (wild type mast cells, WTMC) (mouse) (UniProt P14719).
T1 sequence: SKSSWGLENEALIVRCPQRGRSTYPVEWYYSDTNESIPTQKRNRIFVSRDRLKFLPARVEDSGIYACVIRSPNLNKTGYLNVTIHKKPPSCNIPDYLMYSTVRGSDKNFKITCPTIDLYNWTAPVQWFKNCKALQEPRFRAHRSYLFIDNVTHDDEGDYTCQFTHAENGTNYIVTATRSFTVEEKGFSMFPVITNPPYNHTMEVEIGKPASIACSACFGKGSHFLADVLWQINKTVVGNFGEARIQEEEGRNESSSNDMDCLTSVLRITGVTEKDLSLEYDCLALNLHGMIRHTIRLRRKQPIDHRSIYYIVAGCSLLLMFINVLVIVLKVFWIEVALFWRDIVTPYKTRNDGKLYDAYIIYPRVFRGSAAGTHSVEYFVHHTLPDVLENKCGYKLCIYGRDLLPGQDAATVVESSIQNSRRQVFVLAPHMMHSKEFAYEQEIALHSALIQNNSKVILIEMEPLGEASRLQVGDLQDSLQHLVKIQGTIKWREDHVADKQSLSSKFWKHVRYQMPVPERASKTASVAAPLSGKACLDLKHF
Briefly: competition with anti-T1/ST2 antibody on wild type mast cells (WTMC).

For assay [2], the target named is T1, ST2/T1 receptor on a mouse mast cell line (wild type mast cells, WTMC) (mouse). The experiment in a line: flow cytometry, competition with the ST2/T1-specific monoclonal antibody on a mouse mast cell line.

Results are given in words; binding and its absence hold for the method and conditions named. A result given as binding can be weak or reduced; the word gives no strength.

On to “IL-33 protein (species not stated in the mast cell competition experiment) (ligand)”, for which the binding entry in assay [1] and in assay [2] was “binds” each time.
